Laboratory results as given in the supplement of paper PMC10849652.
The other results are listed elsewhere or left out.

Chains of the proteins cited; added tags and fusions are not shown. Lines headed by an entry give the natural chain unless they say otherwise; changes in a name come on top.
UniProt Q9NUU7: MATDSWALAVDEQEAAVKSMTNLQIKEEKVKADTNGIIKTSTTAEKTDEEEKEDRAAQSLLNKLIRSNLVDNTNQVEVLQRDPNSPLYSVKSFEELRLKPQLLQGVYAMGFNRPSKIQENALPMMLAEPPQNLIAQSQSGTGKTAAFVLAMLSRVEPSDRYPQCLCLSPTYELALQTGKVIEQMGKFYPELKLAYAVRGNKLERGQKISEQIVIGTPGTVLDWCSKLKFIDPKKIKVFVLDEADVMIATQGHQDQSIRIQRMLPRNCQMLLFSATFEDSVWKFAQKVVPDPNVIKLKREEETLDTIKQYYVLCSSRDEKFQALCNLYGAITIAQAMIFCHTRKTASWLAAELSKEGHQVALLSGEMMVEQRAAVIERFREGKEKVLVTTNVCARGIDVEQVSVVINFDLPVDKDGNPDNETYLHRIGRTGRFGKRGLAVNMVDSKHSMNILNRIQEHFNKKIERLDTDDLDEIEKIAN
UniProt Q9GZR7: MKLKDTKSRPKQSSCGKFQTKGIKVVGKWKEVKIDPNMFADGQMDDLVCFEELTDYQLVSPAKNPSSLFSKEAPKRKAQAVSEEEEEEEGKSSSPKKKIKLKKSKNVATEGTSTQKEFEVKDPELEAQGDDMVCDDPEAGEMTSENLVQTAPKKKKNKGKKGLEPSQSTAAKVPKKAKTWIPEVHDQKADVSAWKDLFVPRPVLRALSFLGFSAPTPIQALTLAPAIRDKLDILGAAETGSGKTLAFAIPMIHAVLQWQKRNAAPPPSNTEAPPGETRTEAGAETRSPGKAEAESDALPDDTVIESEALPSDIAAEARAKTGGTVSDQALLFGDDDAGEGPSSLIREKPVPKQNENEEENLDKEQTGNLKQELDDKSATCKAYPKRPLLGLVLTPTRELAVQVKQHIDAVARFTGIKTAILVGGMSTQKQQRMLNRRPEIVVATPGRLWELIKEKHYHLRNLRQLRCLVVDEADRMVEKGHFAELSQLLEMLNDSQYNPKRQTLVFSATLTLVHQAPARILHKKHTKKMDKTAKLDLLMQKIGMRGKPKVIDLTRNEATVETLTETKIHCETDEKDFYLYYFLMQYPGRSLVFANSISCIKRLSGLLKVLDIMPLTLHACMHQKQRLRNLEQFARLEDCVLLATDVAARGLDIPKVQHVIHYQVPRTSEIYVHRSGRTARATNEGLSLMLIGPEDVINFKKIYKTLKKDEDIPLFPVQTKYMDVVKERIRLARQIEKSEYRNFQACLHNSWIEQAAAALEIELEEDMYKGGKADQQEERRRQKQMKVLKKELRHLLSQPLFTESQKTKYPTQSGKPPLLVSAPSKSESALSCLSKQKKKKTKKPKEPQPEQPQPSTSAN
UniProt Q9H8H2: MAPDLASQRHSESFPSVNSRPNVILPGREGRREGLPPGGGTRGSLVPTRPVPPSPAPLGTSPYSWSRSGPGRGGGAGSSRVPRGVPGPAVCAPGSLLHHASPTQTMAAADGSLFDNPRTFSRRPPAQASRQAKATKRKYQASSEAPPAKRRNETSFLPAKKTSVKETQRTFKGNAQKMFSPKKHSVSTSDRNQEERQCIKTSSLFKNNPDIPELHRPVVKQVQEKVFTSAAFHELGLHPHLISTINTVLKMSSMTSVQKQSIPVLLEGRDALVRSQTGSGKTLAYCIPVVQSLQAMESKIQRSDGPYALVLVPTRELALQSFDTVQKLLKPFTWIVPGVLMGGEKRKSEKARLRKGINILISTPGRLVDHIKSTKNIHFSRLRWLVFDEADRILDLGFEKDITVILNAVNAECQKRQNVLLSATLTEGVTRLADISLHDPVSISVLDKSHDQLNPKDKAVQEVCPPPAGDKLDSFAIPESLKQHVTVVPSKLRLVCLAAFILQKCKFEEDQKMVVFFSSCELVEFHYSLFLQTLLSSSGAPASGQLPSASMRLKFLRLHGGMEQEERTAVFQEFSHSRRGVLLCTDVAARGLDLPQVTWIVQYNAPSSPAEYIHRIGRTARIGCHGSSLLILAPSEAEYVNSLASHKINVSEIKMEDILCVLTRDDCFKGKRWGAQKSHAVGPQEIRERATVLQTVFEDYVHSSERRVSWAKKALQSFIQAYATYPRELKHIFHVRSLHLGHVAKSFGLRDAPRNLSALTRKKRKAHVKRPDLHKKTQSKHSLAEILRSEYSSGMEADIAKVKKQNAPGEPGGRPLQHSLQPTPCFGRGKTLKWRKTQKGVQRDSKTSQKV
UniProt Q9Y315: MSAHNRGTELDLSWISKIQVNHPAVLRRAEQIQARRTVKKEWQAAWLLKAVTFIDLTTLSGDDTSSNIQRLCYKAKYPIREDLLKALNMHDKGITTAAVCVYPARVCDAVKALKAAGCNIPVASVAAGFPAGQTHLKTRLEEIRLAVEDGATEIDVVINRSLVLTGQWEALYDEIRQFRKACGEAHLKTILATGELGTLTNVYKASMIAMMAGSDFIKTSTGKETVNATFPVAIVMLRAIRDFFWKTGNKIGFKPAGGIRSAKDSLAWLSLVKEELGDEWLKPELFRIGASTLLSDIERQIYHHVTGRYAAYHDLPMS
UniProt Q9H4E7, whole entry, looked up: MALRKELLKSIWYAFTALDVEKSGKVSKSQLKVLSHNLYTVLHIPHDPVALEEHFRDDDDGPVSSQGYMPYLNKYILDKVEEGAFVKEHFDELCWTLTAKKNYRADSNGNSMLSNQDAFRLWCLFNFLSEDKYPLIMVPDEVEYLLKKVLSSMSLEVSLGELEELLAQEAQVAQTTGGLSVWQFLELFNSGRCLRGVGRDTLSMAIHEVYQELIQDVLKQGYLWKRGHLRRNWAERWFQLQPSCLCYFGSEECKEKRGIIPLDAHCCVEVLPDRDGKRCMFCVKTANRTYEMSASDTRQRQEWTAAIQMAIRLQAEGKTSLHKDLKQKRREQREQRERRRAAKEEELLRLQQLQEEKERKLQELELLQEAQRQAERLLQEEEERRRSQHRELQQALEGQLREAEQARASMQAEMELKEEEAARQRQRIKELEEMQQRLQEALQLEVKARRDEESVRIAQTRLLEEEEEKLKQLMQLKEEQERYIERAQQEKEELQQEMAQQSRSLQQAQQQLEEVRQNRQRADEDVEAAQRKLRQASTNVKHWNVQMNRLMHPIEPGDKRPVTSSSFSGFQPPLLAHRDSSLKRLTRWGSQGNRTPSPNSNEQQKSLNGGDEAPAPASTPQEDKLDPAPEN
UniProt Q9BUQ8: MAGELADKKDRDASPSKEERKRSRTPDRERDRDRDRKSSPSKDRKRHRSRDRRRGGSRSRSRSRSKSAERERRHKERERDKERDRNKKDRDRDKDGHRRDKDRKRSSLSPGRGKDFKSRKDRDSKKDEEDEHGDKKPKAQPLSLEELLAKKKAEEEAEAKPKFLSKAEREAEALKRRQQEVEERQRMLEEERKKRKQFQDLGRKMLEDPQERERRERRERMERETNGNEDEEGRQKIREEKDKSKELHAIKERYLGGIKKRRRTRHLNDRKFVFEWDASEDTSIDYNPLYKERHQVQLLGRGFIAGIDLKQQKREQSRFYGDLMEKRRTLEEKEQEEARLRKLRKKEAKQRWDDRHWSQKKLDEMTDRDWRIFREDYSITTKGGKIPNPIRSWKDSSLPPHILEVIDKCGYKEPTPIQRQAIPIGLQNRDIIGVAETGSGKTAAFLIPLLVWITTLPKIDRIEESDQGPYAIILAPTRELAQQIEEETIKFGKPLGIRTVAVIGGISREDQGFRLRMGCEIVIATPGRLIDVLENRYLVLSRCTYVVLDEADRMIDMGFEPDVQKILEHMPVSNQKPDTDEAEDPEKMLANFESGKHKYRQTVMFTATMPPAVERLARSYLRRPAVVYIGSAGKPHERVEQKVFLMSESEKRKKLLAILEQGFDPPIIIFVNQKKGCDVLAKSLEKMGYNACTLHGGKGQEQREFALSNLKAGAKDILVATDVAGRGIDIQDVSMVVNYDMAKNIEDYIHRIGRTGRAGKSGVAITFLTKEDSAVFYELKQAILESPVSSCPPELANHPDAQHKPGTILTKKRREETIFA
UniProt Q96EP5: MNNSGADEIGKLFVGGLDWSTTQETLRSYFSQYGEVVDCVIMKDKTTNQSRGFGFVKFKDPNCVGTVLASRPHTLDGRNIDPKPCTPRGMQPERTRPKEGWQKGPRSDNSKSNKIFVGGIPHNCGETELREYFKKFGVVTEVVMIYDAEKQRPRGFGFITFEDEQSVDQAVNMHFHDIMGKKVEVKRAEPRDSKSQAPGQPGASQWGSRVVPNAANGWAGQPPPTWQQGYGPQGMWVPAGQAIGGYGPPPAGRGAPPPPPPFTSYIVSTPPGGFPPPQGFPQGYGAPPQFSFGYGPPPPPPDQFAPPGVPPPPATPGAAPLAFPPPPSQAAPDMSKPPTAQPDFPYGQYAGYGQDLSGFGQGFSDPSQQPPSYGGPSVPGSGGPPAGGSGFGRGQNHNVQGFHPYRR
UniProt Q66K64, whole entry, looked up: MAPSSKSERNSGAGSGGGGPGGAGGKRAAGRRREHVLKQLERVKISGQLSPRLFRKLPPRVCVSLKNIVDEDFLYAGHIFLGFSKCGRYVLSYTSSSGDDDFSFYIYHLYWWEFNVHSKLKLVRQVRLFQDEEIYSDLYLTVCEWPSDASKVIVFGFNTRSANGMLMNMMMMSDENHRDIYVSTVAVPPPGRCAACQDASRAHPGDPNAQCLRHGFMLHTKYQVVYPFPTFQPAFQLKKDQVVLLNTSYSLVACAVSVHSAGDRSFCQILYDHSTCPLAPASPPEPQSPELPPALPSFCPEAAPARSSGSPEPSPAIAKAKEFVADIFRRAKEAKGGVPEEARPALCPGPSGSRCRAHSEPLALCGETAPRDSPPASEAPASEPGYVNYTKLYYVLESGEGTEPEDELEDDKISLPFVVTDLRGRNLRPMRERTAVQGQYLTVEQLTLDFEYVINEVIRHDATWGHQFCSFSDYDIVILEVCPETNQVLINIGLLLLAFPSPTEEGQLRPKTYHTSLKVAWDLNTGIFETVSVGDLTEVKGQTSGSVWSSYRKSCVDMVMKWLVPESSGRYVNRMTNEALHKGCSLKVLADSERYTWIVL

Columns and labels:
Experiment in all cases: log2 fold change, soluble protein after heating vs DMSO (PISA); higher = thermal stabilisation; K562 lysate, 10 uM; active = over 0.2 and 3.5 SD of the protein, either way, in both replicates (recomputed)
alvocidib = compound: CN1CC[C@H](c2c(O)cc(O)c3c(=O)cc(-c4ccccc4Cl)oc23)[C@H](O)C1 [alvocidib]
How it was run: (§1)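 Quantification was by TMTpro 16plex LC-MS/MS with equalised channel sums, applied to the supernatant after 21,000xg for 90 min. Samples were crude K562 extract at 1 mg/mL protein in PBS pH 7.4 with 1 mM MgCl2, treated with 10 μM compound for 30 min, heated for 3 min across 48°C-58°C, pooled and brought to 0.5% NP-40 at 4°C. Values are log-two fold changes in thermal stability relative to solvent controls, from duplicates.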

Tubastatin A = compound: CN1CCc2c(c3ccccc3n2Cc2ccc(C(=O)NO)cc2)C1 [Tubastatin A]
How it was run: as §1

[1] = compound: CNC(=O)C1=CC=CC=C1NC2=NC(=NC=C2Cl)NC3=C(C=C(C=C3)N4CCOCC4)OC
How it was run: as §1

defactinib = compound: CNC(=O)c1ccc(Nc2ncc(C(F)(F)F)c(NCc3nccnc3N(C)S(C)(=O)=O)n2)cc1 [defactinib]
How it was run: as §1

[2] = compound: CNc1nc(-c2ccc3c(N)n[nH]c3c2)cc(N2C[C@@H](C(=O)NC3CCCCC3)CC[C@H]2C)n1
How it was run: as §1

encorafenib = compound: COC(=O)N[C@@H](C)CNc1nccc(-c2cn(C(C)C)nc2-c2cc(Cl)cc(NS(C)(=O)=O)c2F)n1 [encorafenib]
How it was run: as §1

[3] = compound: COC(=O)[C@H](CCSC)NC(=O)C1=C(C=C(C=C1)NC[C@H](CS)N)C2=CC=CC=C2
How it was run: as §1

alisertib = compound: COc1cc(Nc2ncc3c(n2)-c2ccc(Cl)cc2C(c2c(F)cccc2OC)=NC3)ccc1C(=O)O [alisertib]
How it was run: as §1

[4] = compound: COc1cc2nc(-c3cc(F)ccc3O)nc(N[C@@H]3CNC[C@H]3C(C)(C)O)c2cc1OC
How it was run: as §1

gefitinib = compound: COc1cc2ncnc(Nc3ccc(F)c(Cl)c3)c2cc1OCCCN1CCOCC1 [gefitinib]
How it was run: as §1

lapatinib = compound: CS(=O)(=O)CCNCc1ccc(-c2ccc3ncnc(Nc4ccc(OCc5cccc(F)c5)c(Cl)c4)c3c2)o1 [lapatinib]
How it was run: as §1

pictilisib = compound: CS(=O)(=O)N1CCN(Cc2cc3nc(-c4cccc5[nH]ncc45)nc(N4CCOCC4)c3s2)CC1 [pictilisib]
How it was run: as §1

crizotinib = compound: C[C@@H](Oc1cc(-c2cnn(C3CCNCC3)c2)cnc1N)c1c(Cl)ccc(F)c1Cl [crizotinib]
How it was run: as §1

[5] = compound: C[C@H](C1=CC=C(C=C1)C(=O)NC2=C3C=CNC3=NC=C2)N
How it was run: as §1

duvelisib = compound: C[C@H](Nc1ncnc2nc[nH]c12)c1cc2cccc(Cl)c2c(=O)n1-c1ccccc1 [duvelisib]
How it was run: as §1

gandotinib = compound: Cc1cc(Nc2cc(CN3CCOCC3)c3nc(C)c(Cc4ccc(Cl)cc4F)n3n2)n[nH]1 [gandotinib]
How it was run: as §1

tozasertib = compound: Cc1cc(Nc2cc(N3CCN(C)CC3)nc(Sc3ccc(NC(=O)C4CC4)cc3)n2)n[nH]1 [tozasertib]
How it was run: as §1

doramapimod = compound: Cc1ccc(-n2nc(C(C)(C)C)cc2NC(=O)Nc2ccc(OCCN3CCOCC3)c3ccccc23)cc1 [doramapimod]
How it was run: as §1

bafetinib = compound: Cc1ccc(NC(=O)c2ccc(CN3CC[C@H](N(C)C)C3)c(C(F)(F)F)c2)cc1Nc1nccc(-c2cncnc2)n1 [bafetinib]
How it was run: as §1

[6] = compound: Cc1cccc(CC(=O)N2CCc3c2ccc(-c2cn(C)c4ncnc(N)c24)c3F)n1
How it was run: as §1

Measured: log2 fold change

DDX19A (UniProt Q9NUU7)
inactive: alvocidib 0.044 | Tubastatin A 0.006 | [1] 0.027 | defactinib -0.012 | [2] 0.02 | encorafenib 0.01 | [3] 0.064 | alisertib -0.019 | [4] 0.013 | gefitinib 0.014 | lapatinib 0.023 | pictilisib 0.022 | crizotinib -0.008 | [5] 0.016 | duvelisib -0.017 | gandotinib -0.143 | tozasertib 0.02 | doramapimod -0.001 | bafetinib -0.006 | [6] -0.064

DDX24 (UniProt Q9GZR7)
inactive: alvocidib 0.039 | Tubastatin A -0.043 | [1] -0.024 | defactinib 0.018 | [2] 0.044 | encorafenib 0.014 | [3] -0.002 | alisertib 0.029 | [4] -0.035 | gefitinib 0.013 | lapatinib 0.021 | pictilisib 0.013 | crizotinib 0.007 | [5] -0.032 | duvelisib 0.002 | gandotinib -0.02 | tozasertib -0.032 | doramapimod -0.08 | bafetinib -0.084 | [6] 0.056

DDX31 (UniProt Q9H8H2)
inactive: alvocidib 0.027 | Tubastatin A -0.089 | [1] -0.015 | defactinib 0.008 | [2] -0.015 | encorafenib 0.072 | [3] -0.034 | alisertib 0.028 | [4] -0.034 | gefitinib -0.018 | lapatinib 0.028 | pictilisib -0.002 | crizotinib -0.11 | [5] -0.084 | duvelisib 0.042 | gandotinib -0.029 | tozasertib 0.035 | doramapimod -0.012 | bafetinib -0.016 | [6] 0.098

DERA (UniProt Q9Y315)
active: [5] 0.732
inactive: alvocidib 0.121 | Tubastatin A 0.018 | [1] 0.033 | defactinib -0.003 | [2] 0.085 | encorafenib -0.005 | [3] -0.053 | alisertib -0.059 | [4] -0.01 | gefitinib 0.087 | lapatinib -0.002 | pictilisib -0.028 | crizotinib -0.015 | duvelisib -0.004 | gandotinib -0.072 | tozasertib -0.028 | doramapimod -0.001 | bafetinib 0.012 | [6] -0.132

DEF6 (UniProt Q9H4E7)
inactive: alvocidib -0.036 | Tubastatin A -0.154 | [1] 0.027 | defactinib -0.07 | [2] 0.039 | encorafenib 0.019 | [3] -0.002 | alisertib 0.097 | [4] 0.013 | gefitinib -0.01 | lapatinib -0.021 | pictilisib 0.057 | crizotinib -0.095 | [5] -0.049 | duvelisib 0.013 | gandotinib 0.032 | tozasertib 0.009 | doramapimod 0 | bafetinib 0.151 | [6] 0.188

DDX23 (UniProt Q9BUQ8)
inactive: alvocidib -0.002 | Tubastatin A -0.035 | [1] 0.006 | defactinib 0.004 | [2] -0.002 | encorafenib 0.012 | [3] -0.001 | alisertib 0.015 | [4] -0.016 | gefitinib -0.041 | lapatinib 0.004 | pictilisib -0.025 | crizotinib -0.021 | [5] 0.019 | duvelisib -0.014 | gandotinib -0.083 | tozasertib -0.013 | doramapimod -0.003 | bafetinib -0.086 | [6] 0.015

DAZAP1 (UniProt Q96EP5)
inactive: alvocidib -0.027 | Tubastatin A 0.042 | [1] -0.026 | defactinib -0.039 | [2] 0.058 | encorafenib -0.018 | [3] -0.045 | alisertib 0.009 | [4] -0.004 | gefitinib 0.034 | lapatinib 0.017 | pictilisib -0.043 | crizotinib 0.073 | [5] 0.035 | duvelisib 0.015 | gandotinib 0 | tozasertib 0.064 | doramapimod 0.003 | bafetinib 0.243 | [6] -0.04

DCAF15 (UniProt Q66K64)
inactive: alvocidib -0.036 | Tubastatin A 0.055 | [1] -0.007 | defactinib -0.037 | [2] 0.043 | encorafenib 0.005 | [3] 0.143 | alisertib 0.046 | [4] -0.029 | gefitinib -0.071 | lapatinib 0.02 | pictilisib -0.147 | crizotinib -0.096 | [5] -0.065 | duvelisib -0.068 | gandotinib 0.089 | tozasertib 0.112 | doramapimod -0.028 | bafetinib 0.084 | [6] -0.025
